# From the supplement of paper PMC6411743
# Amino acid sequences for entries named in this document (tags omitted). A change or cut given only in a name is not applied to a line headed by its entry.
# UniProt Q9Y5L4: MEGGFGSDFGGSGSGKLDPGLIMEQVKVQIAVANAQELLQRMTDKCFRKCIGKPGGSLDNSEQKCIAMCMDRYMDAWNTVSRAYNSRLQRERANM
# UniProt Q9Y4B6: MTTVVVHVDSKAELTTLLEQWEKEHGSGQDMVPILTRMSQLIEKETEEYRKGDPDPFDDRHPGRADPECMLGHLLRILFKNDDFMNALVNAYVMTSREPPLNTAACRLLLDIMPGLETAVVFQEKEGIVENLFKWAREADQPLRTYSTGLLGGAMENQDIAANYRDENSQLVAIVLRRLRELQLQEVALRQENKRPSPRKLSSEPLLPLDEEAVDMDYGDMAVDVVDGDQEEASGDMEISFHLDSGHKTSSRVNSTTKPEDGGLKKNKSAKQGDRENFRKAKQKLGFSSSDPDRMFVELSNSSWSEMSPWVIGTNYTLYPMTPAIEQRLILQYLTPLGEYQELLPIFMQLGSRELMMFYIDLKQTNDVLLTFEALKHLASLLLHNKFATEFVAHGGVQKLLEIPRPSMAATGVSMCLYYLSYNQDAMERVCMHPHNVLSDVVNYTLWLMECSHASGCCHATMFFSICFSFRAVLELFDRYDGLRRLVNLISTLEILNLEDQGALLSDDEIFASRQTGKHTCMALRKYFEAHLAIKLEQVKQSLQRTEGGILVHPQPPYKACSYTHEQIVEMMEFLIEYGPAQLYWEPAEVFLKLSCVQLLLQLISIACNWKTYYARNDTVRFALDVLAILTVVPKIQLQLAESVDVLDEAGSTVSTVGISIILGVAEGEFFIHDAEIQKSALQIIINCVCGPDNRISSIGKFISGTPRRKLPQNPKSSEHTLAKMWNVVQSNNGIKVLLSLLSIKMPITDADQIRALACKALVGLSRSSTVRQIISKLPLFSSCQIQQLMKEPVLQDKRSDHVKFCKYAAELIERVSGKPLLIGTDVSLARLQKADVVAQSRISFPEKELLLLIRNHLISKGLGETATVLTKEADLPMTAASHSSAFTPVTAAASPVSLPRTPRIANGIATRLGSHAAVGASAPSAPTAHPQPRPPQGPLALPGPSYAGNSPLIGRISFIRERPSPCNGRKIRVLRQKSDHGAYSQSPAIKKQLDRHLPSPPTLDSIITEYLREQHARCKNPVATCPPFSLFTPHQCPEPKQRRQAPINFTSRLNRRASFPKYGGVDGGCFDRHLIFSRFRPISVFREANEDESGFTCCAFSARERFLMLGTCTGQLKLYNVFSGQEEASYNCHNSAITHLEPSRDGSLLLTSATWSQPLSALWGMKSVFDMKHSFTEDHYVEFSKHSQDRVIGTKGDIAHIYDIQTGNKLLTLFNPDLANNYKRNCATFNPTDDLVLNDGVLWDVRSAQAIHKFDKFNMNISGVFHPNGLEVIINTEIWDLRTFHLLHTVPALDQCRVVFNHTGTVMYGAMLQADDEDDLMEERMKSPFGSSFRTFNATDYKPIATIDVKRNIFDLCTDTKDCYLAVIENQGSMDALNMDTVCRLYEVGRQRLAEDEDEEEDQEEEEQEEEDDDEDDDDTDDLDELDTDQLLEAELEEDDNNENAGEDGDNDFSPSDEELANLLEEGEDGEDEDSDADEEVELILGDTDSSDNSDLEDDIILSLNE
# UniProt Q9Y606: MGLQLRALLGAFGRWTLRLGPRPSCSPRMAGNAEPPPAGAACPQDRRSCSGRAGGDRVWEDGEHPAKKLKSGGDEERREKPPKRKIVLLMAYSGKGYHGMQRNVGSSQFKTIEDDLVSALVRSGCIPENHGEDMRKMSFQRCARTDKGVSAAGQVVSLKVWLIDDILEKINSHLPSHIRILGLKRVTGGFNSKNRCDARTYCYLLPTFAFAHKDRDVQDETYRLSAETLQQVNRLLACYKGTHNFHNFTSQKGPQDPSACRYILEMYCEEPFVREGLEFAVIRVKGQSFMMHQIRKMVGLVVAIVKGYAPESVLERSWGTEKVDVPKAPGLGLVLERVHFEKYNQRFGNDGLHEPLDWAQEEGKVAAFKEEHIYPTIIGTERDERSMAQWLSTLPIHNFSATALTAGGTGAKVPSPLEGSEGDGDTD
# UniProt Q9Y3A2: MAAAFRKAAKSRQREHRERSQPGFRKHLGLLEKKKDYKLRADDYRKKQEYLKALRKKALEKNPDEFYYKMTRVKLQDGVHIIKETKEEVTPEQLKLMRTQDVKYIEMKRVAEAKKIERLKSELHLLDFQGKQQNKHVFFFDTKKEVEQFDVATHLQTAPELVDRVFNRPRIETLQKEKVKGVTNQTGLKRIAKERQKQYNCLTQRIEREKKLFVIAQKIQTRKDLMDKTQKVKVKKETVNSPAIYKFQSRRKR
# UniProt Q9Y4G8: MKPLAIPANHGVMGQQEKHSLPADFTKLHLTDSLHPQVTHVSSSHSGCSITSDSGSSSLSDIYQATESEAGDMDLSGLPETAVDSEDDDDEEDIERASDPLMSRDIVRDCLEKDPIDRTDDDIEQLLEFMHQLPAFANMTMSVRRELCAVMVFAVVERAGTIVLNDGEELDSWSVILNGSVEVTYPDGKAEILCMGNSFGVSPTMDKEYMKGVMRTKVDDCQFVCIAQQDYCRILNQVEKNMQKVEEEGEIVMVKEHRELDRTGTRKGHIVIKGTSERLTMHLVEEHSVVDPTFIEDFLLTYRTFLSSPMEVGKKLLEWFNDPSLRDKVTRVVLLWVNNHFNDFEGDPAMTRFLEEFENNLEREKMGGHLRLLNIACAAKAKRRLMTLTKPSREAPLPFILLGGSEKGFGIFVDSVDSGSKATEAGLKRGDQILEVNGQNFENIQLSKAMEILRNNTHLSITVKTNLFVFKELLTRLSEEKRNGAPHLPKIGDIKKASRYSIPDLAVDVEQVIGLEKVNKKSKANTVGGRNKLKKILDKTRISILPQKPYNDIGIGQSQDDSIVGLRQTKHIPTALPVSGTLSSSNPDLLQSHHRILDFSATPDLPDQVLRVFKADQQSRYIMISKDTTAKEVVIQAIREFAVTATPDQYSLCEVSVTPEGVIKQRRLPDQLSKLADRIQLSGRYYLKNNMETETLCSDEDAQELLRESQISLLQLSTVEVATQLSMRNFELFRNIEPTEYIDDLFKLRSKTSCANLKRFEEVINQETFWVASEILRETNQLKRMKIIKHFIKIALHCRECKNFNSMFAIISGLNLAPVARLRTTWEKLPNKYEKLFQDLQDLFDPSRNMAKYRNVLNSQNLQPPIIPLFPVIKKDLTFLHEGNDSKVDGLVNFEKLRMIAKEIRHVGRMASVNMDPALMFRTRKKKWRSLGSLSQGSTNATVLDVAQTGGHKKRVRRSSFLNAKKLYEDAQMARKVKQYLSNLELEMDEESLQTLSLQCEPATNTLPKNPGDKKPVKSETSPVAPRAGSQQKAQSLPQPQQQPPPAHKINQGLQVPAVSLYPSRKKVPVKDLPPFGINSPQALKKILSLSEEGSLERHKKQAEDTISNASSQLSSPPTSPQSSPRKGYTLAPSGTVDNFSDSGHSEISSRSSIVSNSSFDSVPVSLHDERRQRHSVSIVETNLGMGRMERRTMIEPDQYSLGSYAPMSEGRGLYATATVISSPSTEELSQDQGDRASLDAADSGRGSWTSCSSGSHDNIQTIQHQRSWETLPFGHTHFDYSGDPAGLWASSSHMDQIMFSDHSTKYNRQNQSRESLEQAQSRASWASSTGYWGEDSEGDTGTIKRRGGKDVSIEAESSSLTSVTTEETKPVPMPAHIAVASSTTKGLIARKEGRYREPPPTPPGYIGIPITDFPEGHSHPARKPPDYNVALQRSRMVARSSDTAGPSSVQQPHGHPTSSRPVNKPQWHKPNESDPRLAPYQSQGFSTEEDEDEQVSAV
# UniProt Q9Y478: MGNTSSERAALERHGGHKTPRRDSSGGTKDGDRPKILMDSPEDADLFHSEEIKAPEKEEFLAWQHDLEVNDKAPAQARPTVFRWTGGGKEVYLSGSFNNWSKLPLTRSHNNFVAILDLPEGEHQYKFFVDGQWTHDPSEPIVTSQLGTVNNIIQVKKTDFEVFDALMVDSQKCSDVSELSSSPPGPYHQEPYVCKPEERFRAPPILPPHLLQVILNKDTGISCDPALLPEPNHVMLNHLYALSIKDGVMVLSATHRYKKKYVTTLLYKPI
# UniProt Q9Y2U5: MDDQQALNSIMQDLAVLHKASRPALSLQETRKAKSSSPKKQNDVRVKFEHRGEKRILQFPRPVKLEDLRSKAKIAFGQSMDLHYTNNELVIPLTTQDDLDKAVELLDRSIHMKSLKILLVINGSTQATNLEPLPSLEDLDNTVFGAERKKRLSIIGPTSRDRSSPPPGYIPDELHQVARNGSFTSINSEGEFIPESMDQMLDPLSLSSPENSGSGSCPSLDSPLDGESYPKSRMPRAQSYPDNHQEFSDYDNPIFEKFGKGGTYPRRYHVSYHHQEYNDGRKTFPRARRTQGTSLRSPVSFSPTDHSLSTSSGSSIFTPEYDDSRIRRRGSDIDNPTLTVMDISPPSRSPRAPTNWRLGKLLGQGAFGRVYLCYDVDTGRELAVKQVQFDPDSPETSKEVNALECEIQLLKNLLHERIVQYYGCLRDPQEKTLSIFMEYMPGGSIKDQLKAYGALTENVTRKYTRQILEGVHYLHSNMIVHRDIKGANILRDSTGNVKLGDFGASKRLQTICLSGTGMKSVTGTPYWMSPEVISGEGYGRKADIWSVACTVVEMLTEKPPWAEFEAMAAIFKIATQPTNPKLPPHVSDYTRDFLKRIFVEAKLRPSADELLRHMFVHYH
# UniProt Q9Y2W2: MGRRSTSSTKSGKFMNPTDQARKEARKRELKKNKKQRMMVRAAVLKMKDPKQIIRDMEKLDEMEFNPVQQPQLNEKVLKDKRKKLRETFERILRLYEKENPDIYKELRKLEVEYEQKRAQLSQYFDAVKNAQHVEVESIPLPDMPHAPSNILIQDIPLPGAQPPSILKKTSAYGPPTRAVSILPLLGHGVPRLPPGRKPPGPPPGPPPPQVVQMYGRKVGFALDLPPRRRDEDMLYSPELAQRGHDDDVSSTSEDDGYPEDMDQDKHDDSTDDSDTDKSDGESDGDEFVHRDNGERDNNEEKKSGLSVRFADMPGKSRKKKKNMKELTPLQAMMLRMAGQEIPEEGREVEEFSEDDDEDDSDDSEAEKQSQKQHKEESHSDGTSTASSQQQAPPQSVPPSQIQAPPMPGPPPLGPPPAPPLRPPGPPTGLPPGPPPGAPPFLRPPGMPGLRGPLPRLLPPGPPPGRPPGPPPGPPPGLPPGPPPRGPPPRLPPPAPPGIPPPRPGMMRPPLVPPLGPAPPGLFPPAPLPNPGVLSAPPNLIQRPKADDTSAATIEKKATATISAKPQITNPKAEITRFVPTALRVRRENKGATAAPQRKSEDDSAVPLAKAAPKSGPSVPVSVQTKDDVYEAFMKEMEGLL
# UniProt Q9Y2K1: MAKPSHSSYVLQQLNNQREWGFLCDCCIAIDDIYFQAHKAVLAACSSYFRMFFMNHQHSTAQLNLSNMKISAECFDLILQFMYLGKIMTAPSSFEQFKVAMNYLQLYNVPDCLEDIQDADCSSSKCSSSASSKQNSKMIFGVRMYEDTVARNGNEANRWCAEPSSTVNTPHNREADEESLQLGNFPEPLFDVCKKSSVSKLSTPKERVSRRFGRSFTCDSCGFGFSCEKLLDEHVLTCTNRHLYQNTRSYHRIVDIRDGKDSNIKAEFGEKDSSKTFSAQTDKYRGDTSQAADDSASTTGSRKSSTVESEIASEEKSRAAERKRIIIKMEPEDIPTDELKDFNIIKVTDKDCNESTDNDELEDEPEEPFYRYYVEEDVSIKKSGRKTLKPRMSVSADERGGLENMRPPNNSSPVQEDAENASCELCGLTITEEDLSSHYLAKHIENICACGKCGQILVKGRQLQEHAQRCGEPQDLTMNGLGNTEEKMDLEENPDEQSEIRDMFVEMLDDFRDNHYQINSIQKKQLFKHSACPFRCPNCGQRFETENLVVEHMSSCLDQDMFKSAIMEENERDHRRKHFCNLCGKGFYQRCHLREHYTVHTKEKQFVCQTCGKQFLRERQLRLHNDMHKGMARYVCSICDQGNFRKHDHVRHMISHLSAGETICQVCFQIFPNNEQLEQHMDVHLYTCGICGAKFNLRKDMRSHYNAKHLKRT
# UniProt Q9Y530: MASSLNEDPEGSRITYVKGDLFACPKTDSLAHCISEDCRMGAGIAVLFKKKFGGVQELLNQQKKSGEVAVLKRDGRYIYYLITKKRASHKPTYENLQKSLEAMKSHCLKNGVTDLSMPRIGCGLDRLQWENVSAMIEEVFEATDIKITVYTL
# UniProt Q9Y679: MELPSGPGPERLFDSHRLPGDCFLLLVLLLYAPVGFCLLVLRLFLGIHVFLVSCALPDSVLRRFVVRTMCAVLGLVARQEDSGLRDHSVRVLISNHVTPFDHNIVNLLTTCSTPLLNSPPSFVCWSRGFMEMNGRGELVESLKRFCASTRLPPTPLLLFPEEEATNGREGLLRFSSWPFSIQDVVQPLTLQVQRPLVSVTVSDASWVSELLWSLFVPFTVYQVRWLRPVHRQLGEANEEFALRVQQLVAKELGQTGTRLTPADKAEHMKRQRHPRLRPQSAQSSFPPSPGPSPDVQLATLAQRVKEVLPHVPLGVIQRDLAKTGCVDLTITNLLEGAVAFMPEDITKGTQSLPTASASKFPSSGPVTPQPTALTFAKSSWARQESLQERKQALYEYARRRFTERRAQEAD
# ± gives the standard deviation of the averaged measurements. The list shows a part of the results, in another mix than the full data. Most entries show no effect beyond the scatter of the controls.
# Compound: Nc1ncnc2c1ncn2[C@@H]1O[C@H](COP(=O)(O)OP(=O)(O)OP(=O)(O)O)[C@@H](O)[C@H]1O [adenosine triphosphate]
# Assay: NP40-soluble protein abundance relative to vehicle (solubility fold change) (ratio); higher = more soluble protein in presence of ATP
# Procedure, shortened: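 Jurkat crude lysate prepared with a Dounce homogeniser was treated at eight concentrations spanning 0.1 to 10 mM, 10 min at room temperature then 3 min at 37 °C. Solubilisation with 0.8% NP40 and benzonase and ultracentrifugation preceded TMT labelling of the supernatant for LC-MS/MS. Fold change against the detergent-processed vehicle was determined per replicate from vsn-normalised intensities, across three independent experiments.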
Target,NP40-soluble protein abundance (concentration: 0.1mM),NP40-soluble protein abundance (concentration: 0.5mM)
ICE1 (UniProt Q9Y2F5),1 ± 0.17,1.22 ± 0.29
UniProt Q9Y5L4 and related entries,0.908 ± 0.08,0.885 ± 0.13
USP20 (UniProt Q9Y2K6),0.9997 ± 0.0093,1.04 ± 0.045
NDUFAF1 (UniProt Q9Y375),1.03 ± 0.059,1.02 ± 0.033
UniProt Q9Y394 and related entries,1.04 ± 0.015,1.04 ± 0.016
DYNC1LI1 (UniProt Q9Y6G9),0.948 ± 0.044,0.985 ± 0.073
UniProt Q9Y4B6 and related entries,1.01 ± 0.046,0.999 ± 0.047
CAB39 (UniProt Q9Y376),0.964 ± 0.054,0.976 ± 0.023
UTP18 (UniProt Q9Y5J1),1.01 ± 0.035,1.1 ± 0.071
DNMT3A (UniProt Q9Y6K1),0.998 ± 0.017,1.05 ± 0.046
HYOU1 (UniProt Q9Y4L1),0.978 ± 0.028,0.996 ± 0.05
NUBP2 (UniProt Q9Y5Y2),1.05 ± 0.037,1.04 ± 0.056
UniProt Q9Y5L0 and related entries,0.985 ± 0.065,0.994 ± 0.03
RRP7A (UniProt Q9Y3A4),0.917 ± 0.082,0.948 ± 0.023
HCFC2 (UniProt Q9Y5Z7),1.05 ± 0.066,1 ± 0.13
UniProt Q9Y606 and related entries,0.992 ± 0.049,0.985 ± 0.044
UniProt Q9Y371 and related entries,0.995 ± 0.02,0.967 ± 0.025
CLIC4 (UniProt Q9Y696),1 ± 0.015,1.02 ± 0.056
UniProt Q9Y5W9 and related entries,0.959 ± 0.064,0.936 ± 0.18
UniProt Q9Y4B5 and related entries,0.993 ± 0.065,1.06 ± 0.015

# Single records, as listed above. Values in the order: NP40-soluble protein abundance (concentration: 0.1mM)	NP40-soluble protein abundance (concentration: 0.5mM)
# UniProt Q9Y5L0 and related entries reads 0.985 ± 0.065	0.994 ± 0.03
# UniProt Q9Y606 and related entries reads 0.992 ± 0.049	0.985 ± 0.044

# (cont.)

Target,NP40-soluble protein abundance (concentration: 0.1mM),NP40-soluble protein abundance (concentration: 0.5mM)
UniProt Q9Y3R5 and related entries,1.01 ± 0.051,1.01 ± 0.041
TMED5 (UniProt Q9Y3A6),1.02 ± 0.086,1.04 ± 0.094
UniProt Q9Y3Q8 and related entries,0.993 ± 0.035,0.948 ± 0.075
UniProt Q9Y2L5 and related entries,1.05 ± 0.039,1.03 ± 0.022
UniProt Q9Y2X7 and related entries,1.01 ± 0.055,1.01 ± 0.058
MRPS18B (UniProt Q9Y676),0.885 ± 0.17,0.923 ± 0.18
UniProt Q9Y4C2 and related entries,1.13 ± 0.18,0.988 ± 0.025
ATP11B (UniProt Q9Y2G3),1.11 ± 0.089,1.06 ± 0.086
UTP11 (UniProt Q9Y3A2),0.928 ± 0.052,0.972 ± 0.045
UniProt Q9Y2Q9 and related entries,0.907 ± 0.19,0.851 ± 0.15
TMED7 (UniProt Q9Y3B3),1.03 ± 0.11,0.97 ± 0.019
ARFGEF2 (UniProt Q9Y6D5),1.03 ± 0.024,1.03 ± 0.015
UniProt Q9Y4G8 and related entries,1.03 ± 0.049,1.03 ± 0.082
UniProt Q9Y2Z0 and related entries,0.996 ± 0.025,1.01 ± 0.023
UniProt Q9Y2L9-2|Q9Y2L9 and related entries,0.926 ± 0.062,0.935 ± 0.038
PRKAB1 (UniProt Q9Y478),1.02 ± 0.034,0.972 ± 0.032
UniProt Q9Y2U5,1 ± 0.035,1 ± 0.034
UniProt Q9Y6J0 and related entries,1.01 ± 0.041,1.01 ± 0.042
SUPT16H (UniProt Q9Y5B9),1 ± 0.029,1.05 ± 0.02
TLN2 (UniProt Q9Y4G6),1.01 ± 0.057,0.994 ± 0.06

Target,NP40-soluble protein abundance (concentration: 0.1mM),NP40-soluble protein abundance (concentration: 0.5mM)
NME7 (UniProt Q9Y5B8),1 ± 0.099,0.995 ± 0.078
WBP11 (UniProt Q9Y2W2),0.9644 ± 0.0085,1.04 ± 0.027
UniProt Q9Y2K1 and related entries,1.06 ± 0.034,1.09 ± 0.054
UniProt Q9Y530,0.953 ± 0.046,0.984 ± 0.034
UniProt Q9Y3U8,0.984 ± 0.11,0.953 ± 0.067
UniProt Q9Y679 and related entries,1.01 ± 0.038,0.999 ± 0.056
AP4B1 (UniProt Q9Y6B7),1.06 ± 0.086,1.03 ± 0.03
UniProt Q9Y2S6,1.1 ± 0.097,1.08 ± 0.03
FBXO7 (UniProt Q9Y3I1),0.865 ± 0.042,0.952 ± 0.011
YBX2 (UniProt Q9Y2T7),1.14 ± 0.23,1.05 ± 0.055
GTF3C3 (UniProt Q9Y5Q9),1.02 ± 0.02,1.03 ± 0.022
YTHDF2 (UniProt Q9Y5A9),0.9923 ± 0.0056,1.006 ± 0.0088
RAD54L2 (UniProt Q9Y4B4),1.01 ± 0.042,1.02 ± 0.025
NISCH (UniProt Q9Y2I1),1.02 ± 0.021,0.989 ± 0.055
RRP15 (UniProt Q9Y3B9),0.935 ± 0.072,0.9637 ± 0.0077
LRRC42 (UniProt Q9Y546),1.06 ± 0.089,1.07 ± 0.058
UniProt Q9Y2S0 and related entries,0.993 ± 0.072,0.967 ± 0.089
F11R (UniProt Q9Y624),0.976 ± 0.082,0.942 ± 0.024
CCDC9 (UniProt Q9Y3X0),1.04 ± 0.089,1.07 ± 0.086
UniProt Q9Y3P8 and related entries,0.912 ± 0.097,0.921 ± 0.045
